Laboratory results published in patent US7972831B2, “Lipases from thermophilic anaerobes” (Novozymes A/S, priority 2004, dated 2011).

B1: lipase of SEQ ID NO: 2: polypeptide having lipase activity from Thermoanaerobacter thermohydrosulfuricus DSM 7021 and T. brockii subsp. brockii DSM 1457 (protein, listed as Thermoanaerobacter thermohydrosulfuricus)
chain: MQKAVEITYNGKTLRGMMHLPDDVKGKVPMVIMFHGFTGNKVESHFIFVKMSRALEKVGIGSVRFDFYGSGESDGDFSEMTFSSELEDARQILKFVKEQPTTDPERIGLLGLSMGGAIAGIVAREYKDEIKALVLWAPAFNMPELIMNESVKQYGAIMEQLGFVDIGGHKLSKDFVEDISKLNIFELSKGYDKKVLIVHGTNDEAVEYKVSDRILKEVYGDNATRVTIENADHTFKSLEWEKKAIEESVEFFKKELLKG
B2: lipase of SEQ ID NO: 4: polypeptide having lipase activity from Caldanaerobacter subterraneus subsp. tengcongensis DSM 15242 (protein, listed as Thermoanaerobacter tencongensis)
chain: VQKAVEFTYNRKTLRGMLHLPEGVSEKVPMVVMFHGFTGNKVESHFIFVKMSRALEKVGIGSVRFDFYGSGESDGDFSEMTFSGELEDARQILDFVKRQPTTDVERIGLLGLSMGGAIAGIIARERKEDVKALVLWAPAFNMPELIMGEGARQYGAIMESLGYVDIGGLKLDRAFVEDIAKFNIFELSRGYEGKVLIVHGTNDEAVEYRISDRILQEVYGDNAFRVTIEGADHTFKNLEWERKAIEESVKFFERELKG

Assay: Effect of temperature on lipase activity
Assay type: biochemical
Conditions: for optimum activity (temperature): 10 minutes reaction

Row | Molecule | optimum activity (temperature) | activity above 85-90° C.
1 | B1 | 75 °C | little activity
2 | B2 | 75 °C | little activity
